Data source: PubChem BioAssay AID1259308 (NCATS, 2017)
Aim: 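Candidate targets for better recombinant protein yield in mammalian cells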 (primary screen). Cell system: human HEK293 embryonic kidney cells stably expressing firefly luciferase (HEK-CMV-Luc2-Hygro). Reagents: single siRNA against human genes, 0.8 pmol siRNA per well. Timing: 72 h. Measurement: 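Luciferase light (ONE-Glo) measured on one replicate plate set and viability (CellTiter-Glo) on the other, scaled to a negative control siRNA, with robust z-scores and luciferase per cell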. Scale: total luciferase, z-score and total luciferase, % of control: higher = more reporter protein produced. Call rule: 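Active when the median/MAD z-score for overall luciferase is greater than 3; a gene was taken forward for validation with new siRNAs if at least two of its three siRNAs passed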. Calls: active = raised luciferase; inactive = no rise.
The whole screen tested about 59,000 reagents; this is a random part of them. About 1,510 of all reagents (2.6%) count as active. 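Calls use total luciferase alone and ignore viability, so some active siRNAs may act by altering cell number.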 Entries without a mark were called inactive. The numbers tell different reagents against one gene apart. Further read-outs or replicates are left out here.

Gene | reagent | total luciferase, z-score | total luciferase, % of control
POLL (GeneID 27343) | 1 | -0.199 | 77.9
POLL (GeneID 27343) | 2 | 1.54 | 112
POLL (GeneID 27343) | 3 | -1.04 | 61.1
SGK3 (GeneID 23678) | 1 | -0.782 | 66.3
SGK3 (GeneID 23678) | 2 | -0.233 | 77.3
SGK3 (GeneID 23678) | 3 | 1.6 | 114
GABRR1 (GeneID 2569) | 1 | -0.422 | 73.5
GABRR1 (GeneID 2569) | 2 | -1.96 | 42.8
GABRR1 (GeneID 2569) | 3 | -0.899 | 64
FMO5 (GeneID 2330) | 1 | 2.8 | 138
FMO5 (GeneID 2330) | 2 | -2.37 | 34.8
FMO5 (GeneID 2330) | 3 | 0.188 | 85.6
GNA13 (GeneID 10672) | 1 | -1.71 | 47.8
GNA13 (GeneID 10672) | 2 | -0.0321 | 81.2
GNA13 (GeneID 10672) | 3 | -0.611 | 69.7
PDE4DIPP6 (GeneID 100132057) | 1 | 2 | 122
PDE4DIPP6 (GeneID 100132057) | 2 | -0.239 | 77.1
PDE4DIPP6 (GeneID 100132057) | 3 | -0.505 | 71.8
GARIN1A (GeneID 346653) | 1 | 3.15 (active) | 145
GARIN1A (GeneID 346653) | 2 | 0.217 | 86.2
GARIN1A (GeneID 346653) | 3 | -0.915 | 63.7
SETBP1 (GeneID 26040) | 1 | -0.353 | 74.9
SETBP1 (GeneID 26040) | 2 | 2.43 | 130
SETBP1 (GeneID 26040) | 3 | -0.426 | 73.4
AP3M1 (GeneID 26985) | 1 | 0.73 | 96.4
AP3M1 (GeneID 26985) | 2 | -0.206 | 77.8
AP3M1 (GeneID 26985) | 3 | -1.26 | 56.9

The list goes on, starting with the last 8 of the part before.
Gene | reagent | total luciferase, z-score | total luciferase, % of control
GARIN1A (GeneID 346653) | 2 | 0.217 | 86.2
GARIN1A (GeneID 346653) | 3 | -0.915 | 63.7
SETBP1 (GeneID 26040) | 1 | -0.353 | 74.9
SETBP1 (GeneID 26040) | 2 | 2.43 | 130
SETBP1 (GeneID 26040) | 3 | -0.426 | 73.4
AP3M1 (GeneID 26985) | 1 | 0.73 | 96.4
AP3M1 (GeneID 26985) | 2 | -0.206 | 77.8
AP3M1 (GeneID 26985) | 3 | -1.26 | 56.9
KRT84 (GeneID 3890) | 1 | 0.604 | 93.9
KRT84 (GeneID 3890) | 2 | 0.449 | 90.8
KRT84 (GeneID 3890) | 3 | 1.39 | 110
MAP3K13 (GeneID 9175) | 1 | 0.268 | 87.2
MAP3K13 (GeneID 9175) | 2 | 0.904 | 99.9
MAP3K13 (GeneID 9175) | 3 | -1.49 | 52.3
CLVS2 (GeneID 134829) | 1 | 0.49 | 91.6
CLVS2 (GeneID 134829) | 2 | -0.57 | 70.6
CLVS2 (GeneID 134829) | 3 | 0.214 | 86.1
TLR3 (GeneID 7098) | 1 | 1.24 | 107
TLR3 (GeneID 7098) | 2 | -0.422 | 73.5
TLR3 (GeneID 7098) | 3 | -0.846 | 65.1
OR4N2 (GeneID 390429) | 1 | 1.04 | 103
OR4N2 (GeneID 390429) | 2 | 0.825 | 98.3
OR4N2 (GeneID 390429) | 3 | 0.0628 | 83.1
CMA1 (GeneID 1215) | 1 | 0.852 | 98.8
CMA1 (GeneID 1215) | 2 | 0.697 | 95.7
CMA1 (GeneID 1215) | 3 | -0.112 | 79.7
NAALAD2 (GeneID 10003) | 1 | 1.35 | 109
NAALAD2 (GeneID 10003) | 2 | 0.37 | 89.3
NAALAD2 (GeneID 10003) | 3 | 1.51 | 112
MOSPD2 (GeneID 158747) | 1 | -0.407 | 73.8
MOSPD2 (GeneID 158747) | 2 | -0.472 | 72.5
MOSPD2 (GeneID 158747) | 3 | 0.287 | 87.6
C4orf36 (GeneID 132989) | 1 | -0.329 | 75.3
C4orf36 (GeneID 132989) | 2 | 0.746 | 96.7
C4orf36 (GeneID 132989) | 3 | -0.515 | 71.6
CXCL2 (GeneID 2920) | 1 | 0.719 | 96.2
CXCL2 (GeneID 2920) | 2 | 0.0822 | 83.5
CXCL2 (GeneID 2920) | 3 | 1.54 | 112
